{"sequences": {"note": "By UniProt entry, the sequences of proteins in these tests, tags left out.", "UniProt Q12834": "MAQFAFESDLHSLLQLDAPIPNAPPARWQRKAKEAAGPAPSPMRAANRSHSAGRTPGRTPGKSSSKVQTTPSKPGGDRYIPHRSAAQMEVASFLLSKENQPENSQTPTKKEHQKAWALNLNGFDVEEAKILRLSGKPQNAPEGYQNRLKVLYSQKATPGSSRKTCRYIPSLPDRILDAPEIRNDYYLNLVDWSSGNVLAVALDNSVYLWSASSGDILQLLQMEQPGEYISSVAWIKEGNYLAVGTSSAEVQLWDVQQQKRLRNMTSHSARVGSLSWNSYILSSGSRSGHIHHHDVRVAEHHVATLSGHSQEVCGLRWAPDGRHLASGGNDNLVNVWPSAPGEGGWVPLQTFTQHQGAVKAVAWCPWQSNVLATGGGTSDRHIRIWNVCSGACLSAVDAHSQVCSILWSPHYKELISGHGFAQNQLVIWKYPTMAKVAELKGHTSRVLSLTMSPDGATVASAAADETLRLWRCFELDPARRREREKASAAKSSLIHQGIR", "UniProt P27694": "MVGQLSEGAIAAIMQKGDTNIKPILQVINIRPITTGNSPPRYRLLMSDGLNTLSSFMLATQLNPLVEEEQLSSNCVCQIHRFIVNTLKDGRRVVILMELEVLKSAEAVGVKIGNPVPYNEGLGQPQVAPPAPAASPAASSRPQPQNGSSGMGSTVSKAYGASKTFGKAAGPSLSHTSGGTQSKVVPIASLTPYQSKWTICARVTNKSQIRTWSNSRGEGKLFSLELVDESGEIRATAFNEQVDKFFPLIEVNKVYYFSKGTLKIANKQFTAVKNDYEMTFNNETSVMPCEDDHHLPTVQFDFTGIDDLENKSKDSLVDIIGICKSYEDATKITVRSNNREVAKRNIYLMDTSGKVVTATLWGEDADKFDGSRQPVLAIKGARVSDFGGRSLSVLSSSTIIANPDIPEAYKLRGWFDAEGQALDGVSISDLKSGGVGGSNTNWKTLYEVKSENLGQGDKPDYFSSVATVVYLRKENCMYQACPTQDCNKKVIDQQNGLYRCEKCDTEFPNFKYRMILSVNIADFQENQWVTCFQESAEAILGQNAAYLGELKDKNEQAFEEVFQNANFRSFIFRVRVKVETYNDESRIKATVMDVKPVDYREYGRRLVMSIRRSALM"}, "source": "paper PMC11312485", "target": "Cell division cycle 20 (CDC20) (human (endogenous in KYSE450 and KYSE200)) (UniProt Q12834)", "test": "affinity purification with mass spectrometry; KYSE450 cells treated with 5 Gy X-ray; whole-cell lysate immunoprecipitated with CDC20 antibody, eluate separated by SDS-PAGE, bands digested and analysed by LC-MS/MS", "note": "These are yes or no findings as the source states them, for the method shown. Binding seen in cells or lysates may run through a third protein. Here binding means that the protein was enriched with, or labelled near, the bait; the list need not be complete."}
{"substance": "RPA1 (from UniProt P27694 1-616)", "values": [{"measurement": "binding", "result": "binds"}]}
